Source: the supplement of paper PMC10849652
The other results are listed elsewhere or left out.

Chains of the proteins cited; added tags and fusions are not shown. Lines headed by an entry give the natural chain unless they say otherwise; changes in a name come on top.
UniProt Q8TDW7: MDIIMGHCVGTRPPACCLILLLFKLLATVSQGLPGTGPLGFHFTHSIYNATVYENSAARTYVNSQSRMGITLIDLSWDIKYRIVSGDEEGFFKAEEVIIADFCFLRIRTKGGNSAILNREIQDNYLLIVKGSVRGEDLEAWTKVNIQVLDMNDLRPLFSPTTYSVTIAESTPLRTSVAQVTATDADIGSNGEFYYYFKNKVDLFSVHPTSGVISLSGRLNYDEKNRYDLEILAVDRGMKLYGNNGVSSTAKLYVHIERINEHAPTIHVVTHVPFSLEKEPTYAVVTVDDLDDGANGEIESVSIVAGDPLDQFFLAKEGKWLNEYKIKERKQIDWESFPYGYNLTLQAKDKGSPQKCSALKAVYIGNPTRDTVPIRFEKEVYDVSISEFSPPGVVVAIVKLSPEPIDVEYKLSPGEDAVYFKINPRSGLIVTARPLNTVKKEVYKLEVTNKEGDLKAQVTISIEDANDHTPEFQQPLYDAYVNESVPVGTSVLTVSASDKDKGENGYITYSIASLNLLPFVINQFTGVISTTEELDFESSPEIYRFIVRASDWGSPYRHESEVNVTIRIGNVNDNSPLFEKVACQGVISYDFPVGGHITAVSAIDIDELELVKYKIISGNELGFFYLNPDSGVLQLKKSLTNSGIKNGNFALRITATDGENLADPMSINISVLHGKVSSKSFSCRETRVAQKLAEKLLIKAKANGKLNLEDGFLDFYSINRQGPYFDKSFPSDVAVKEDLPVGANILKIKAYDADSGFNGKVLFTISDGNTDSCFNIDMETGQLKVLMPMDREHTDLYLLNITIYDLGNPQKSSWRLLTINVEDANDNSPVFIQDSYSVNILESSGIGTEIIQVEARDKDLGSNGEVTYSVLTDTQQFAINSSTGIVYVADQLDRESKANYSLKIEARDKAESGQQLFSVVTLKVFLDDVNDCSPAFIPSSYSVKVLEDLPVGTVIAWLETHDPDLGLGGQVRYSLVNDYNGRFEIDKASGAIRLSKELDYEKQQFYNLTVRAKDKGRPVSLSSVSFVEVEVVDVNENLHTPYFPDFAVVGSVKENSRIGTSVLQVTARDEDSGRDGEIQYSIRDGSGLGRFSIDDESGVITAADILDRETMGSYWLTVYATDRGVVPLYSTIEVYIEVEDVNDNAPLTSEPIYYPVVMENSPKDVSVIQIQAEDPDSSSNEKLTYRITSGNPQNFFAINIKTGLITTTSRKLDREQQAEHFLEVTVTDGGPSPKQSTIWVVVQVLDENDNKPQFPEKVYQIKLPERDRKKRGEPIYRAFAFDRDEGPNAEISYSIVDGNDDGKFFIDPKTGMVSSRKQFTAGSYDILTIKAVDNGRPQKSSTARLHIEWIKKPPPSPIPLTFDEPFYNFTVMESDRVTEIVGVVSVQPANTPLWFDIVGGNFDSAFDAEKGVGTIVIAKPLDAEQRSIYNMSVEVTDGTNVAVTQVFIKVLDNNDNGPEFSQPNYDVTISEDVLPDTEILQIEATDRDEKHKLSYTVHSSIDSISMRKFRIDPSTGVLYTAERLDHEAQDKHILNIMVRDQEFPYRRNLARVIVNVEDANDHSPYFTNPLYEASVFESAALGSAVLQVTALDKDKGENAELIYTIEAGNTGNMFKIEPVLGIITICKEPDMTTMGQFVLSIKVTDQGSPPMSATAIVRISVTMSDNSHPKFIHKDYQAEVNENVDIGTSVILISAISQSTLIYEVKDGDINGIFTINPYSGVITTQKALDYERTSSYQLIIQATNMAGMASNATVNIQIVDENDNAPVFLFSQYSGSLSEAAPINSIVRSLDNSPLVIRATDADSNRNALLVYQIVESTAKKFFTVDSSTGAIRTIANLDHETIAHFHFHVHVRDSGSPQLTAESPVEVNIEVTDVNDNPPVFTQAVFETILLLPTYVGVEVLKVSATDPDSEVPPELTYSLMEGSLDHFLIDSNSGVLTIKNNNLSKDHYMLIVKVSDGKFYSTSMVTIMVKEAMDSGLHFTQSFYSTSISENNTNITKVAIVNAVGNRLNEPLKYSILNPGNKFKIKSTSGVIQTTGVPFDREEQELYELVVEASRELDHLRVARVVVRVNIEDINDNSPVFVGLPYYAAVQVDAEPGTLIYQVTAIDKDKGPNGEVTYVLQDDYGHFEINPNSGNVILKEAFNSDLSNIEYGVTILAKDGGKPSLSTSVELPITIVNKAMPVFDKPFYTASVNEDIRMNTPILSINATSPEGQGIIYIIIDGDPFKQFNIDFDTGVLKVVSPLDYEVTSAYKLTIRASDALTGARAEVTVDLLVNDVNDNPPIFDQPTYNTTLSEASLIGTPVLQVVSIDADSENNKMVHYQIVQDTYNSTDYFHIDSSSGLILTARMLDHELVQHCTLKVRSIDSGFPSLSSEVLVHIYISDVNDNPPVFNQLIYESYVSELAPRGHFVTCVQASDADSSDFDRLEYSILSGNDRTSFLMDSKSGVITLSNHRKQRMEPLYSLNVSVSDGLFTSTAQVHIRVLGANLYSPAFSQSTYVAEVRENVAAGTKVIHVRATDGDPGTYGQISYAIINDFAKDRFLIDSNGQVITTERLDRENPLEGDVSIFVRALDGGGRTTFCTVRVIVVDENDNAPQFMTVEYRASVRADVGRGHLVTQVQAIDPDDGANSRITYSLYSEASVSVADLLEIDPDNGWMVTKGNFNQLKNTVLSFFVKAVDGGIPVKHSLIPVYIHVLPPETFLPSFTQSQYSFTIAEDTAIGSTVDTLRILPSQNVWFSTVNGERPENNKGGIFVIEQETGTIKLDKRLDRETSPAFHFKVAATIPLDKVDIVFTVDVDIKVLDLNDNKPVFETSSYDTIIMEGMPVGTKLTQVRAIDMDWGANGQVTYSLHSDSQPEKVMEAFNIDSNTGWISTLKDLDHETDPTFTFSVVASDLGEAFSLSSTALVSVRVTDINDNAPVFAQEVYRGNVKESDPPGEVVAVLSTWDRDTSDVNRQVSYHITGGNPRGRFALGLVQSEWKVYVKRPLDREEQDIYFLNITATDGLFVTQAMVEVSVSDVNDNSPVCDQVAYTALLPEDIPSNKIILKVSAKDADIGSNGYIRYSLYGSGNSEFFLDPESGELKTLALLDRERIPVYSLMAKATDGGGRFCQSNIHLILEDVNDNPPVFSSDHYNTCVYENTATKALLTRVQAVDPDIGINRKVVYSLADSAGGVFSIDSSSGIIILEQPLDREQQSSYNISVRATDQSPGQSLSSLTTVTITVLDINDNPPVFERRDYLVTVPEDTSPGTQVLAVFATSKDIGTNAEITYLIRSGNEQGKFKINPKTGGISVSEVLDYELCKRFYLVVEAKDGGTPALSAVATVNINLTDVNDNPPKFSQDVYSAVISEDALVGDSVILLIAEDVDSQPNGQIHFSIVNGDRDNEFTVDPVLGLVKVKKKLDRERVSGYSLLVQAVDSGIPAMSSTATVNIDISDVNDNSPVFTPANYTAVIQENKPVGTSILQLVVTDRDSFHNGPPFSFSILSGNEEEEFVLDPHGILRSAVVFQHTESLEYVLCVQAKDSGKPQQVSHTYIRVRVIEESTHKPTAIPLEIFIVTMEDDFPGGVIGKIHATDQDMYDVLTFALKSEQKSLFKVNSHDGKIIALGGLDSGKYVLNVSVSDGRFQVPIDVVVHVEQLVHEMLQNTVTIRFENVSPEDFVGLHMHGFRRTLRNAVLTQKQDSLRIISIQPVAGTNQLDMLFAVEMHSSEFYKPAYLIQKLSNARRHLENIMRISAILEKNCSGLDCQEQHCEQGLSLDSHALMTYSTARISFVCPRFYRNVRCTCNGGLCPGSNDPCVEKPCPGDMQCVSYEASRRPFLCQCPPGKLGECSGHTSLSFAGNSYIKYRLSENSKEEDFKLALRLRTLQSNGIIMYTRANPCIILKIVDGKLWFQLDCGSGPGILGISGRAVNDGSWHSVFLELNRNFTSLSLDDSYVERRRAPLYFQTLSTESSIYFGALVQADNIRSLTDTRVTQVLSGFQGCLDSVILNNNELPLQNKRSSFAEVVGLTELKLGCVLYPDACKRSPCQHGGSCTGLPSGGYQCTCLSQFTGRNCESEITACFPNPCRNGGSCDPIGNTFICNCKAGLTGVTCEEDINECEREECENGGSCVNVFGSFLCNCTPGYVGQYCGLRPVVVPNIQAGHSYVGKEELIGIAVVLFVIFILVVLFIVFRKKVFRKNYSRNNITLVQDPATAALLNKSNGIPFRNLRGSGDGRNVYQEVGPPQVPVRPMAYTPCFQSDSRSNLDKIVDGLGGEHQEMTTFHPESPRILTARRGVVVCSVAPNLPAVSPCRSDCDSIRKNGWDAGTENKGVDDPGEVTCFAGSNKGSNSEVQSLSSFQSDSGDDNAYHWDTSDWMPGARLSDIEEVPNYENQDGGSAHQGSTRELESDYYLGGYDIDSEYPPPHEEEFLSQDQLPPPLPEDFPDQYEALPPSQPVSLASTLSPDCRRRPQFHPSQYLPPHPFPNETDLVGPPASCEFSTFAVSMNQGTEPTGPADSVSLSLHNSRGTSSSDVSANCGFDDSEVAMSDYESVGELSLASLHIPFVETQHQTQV
UniProt Q9NWM8: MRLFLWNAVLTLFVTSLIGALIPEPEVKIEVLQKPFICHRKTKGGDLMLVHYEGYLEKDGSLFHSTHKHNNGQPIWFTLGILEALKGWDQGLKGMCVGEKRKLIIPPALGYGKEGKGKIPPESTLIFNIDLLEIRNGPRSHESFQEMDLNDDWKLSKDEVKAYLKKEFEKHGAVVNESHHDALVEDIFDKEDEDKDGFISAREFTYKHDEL
UniProt Q9NW38: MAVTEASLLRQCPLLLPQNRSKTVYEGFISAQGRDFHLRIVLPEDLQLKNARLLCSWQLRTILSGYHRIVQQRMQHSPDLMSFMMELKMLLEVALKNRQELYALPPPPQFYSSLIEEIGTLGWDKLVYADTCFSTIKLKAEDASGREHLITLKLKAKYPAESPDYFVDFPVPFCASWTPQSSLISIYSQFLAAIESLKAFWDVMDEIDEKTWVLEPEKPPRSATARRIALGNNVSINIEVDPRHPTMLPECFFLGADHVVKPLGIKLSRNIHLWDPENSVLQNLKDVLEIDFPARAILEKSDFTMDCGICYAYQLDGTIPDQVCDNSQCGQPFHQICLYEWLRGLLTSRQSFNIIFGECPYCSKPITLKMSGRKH
UniProt P23142: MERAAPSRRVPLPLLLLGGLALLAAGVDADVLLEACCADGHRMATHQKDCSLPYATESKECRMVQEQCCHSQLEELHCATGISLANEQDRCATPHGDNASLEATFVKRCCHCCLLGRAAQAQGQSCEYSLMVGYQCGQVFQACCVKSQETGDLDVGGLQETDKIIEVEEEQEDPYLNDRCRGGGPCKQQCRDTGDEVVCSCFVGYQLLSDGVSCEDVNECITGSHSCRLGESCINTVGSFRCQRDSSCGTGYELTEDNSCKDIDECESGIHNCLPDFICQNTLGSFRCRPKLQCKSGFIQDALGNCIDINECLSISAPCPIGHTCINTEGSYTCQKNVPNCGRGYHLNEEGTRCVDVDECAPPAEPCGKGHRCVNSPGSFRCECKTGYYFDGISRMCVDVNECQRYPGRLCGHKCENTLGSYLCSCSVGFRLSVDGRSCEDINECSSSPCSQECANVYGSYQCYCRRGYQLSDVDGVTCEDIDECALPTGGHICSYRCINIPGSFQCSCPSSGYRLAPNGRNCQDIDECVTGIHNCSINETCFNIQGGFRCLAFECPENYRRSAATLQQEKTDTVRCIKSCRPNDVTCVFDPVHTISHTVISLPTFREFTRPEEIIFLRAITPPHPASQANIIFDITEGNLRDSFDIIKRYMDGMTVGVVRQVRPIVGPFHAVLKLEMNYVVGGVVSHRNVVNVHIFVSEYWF
UniProt O95363: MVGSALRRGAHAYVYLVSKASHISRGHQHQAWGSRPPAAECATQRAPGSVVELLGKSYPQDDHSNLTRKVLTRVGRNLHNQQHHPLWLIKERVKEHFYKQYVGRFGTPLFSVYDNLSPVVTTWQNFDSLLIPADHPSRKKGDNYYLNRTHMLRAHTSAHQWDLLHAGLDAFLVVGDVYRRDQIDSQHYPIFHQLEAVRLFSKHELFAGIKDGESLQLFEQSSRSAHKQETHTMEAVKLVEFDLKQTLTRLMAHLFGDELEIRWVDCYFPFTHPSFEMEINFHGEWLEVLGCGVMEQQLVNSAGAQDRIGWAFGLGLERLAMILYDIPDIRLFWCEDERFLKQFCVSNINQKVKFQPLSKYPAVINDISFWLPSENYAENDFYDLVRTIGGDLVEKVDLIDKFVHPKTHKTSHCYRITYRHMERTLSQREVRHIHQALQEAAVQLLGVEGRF
UniProt P0C2W1: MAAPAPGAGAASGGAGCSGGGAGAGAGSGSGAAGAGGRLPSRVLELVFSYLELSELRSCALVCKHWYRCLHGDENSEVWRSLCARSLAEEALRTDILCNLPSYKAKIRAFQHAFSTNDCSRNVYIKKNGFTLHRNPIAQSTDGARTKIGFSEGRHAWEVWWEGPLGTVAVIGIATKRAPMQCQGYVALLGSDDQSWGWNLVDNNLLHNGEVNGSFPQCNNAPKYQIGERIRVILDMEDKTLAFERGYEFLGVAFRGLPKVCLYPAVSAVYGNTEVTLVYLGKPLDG

Experiments:
Test in all cases: log2 fold change, soluble protein after heating vs DMSO (PISA); higher = thermal stabilisation; K562 lysate, 10 uM; active = over 0.2 and 3.5 SD of the protein, either way, in both replicates (recomputed)
[1] = compound: CCCS(=O)(=O)Nc1ccc(F)c(C(=O)c2c[nH]c3ncc(-c4ccc(Cl)cc4)cc23)c1F [vemurafenib]
In short: (§1)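 The values are log-two fold changes in thermal stability compared with solvent controls and come from duplicates. They were obtained by TMTpro 16plex LC-MS/MS, with channel sums equalised, on the supernatant after 21,000xg for 90 min. That supernatant came from crude K562 extract at 1 mg/mL protein treated with 10 μM compound for 30 min, heated for 3 min across 48°C-58°C, pooled and brought to 0.5% NP-40 at 4°C.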

[2] = compound: CCCS(=O)(=O)Nc1ccc(F)c(C(=O)c2c[nH]c3ncc(Cl)cc23)c1F
In short: as §1

[3] = compound: CCN(CCCOc1ccc2c(Nc3cc(CC(=O)Nc4cccc(F)c4)[nH]n3)ncnc2c1)CCOP(=O)(O)O [barasertib]
In short: as §1

[4] = compound: CC[C@@H]1C(=O)N(C)c2cnc(Nc3ccc(C(=O)NC4CCN(C)CC4)cc3OC)nc2N1C1CCCC1
In short: as §1

[5] = compound: CC[C@@H]1C(=O)N(C)c2cnc(Nc3ccc(C(=O)N[C@H]4CC[C@H](N5CCN(CC6CC6)CC5)CC4)cc3OC)nc2N1C(C)C [volasertib]
In short: as §1

[6] = compound: CCn1c(C(=O)N(C2CC2)C2CC2)cc2c3c(ncn3C)c(Nc3cc(C)n(C)n3)nc21
In short: as §1

[7] = compound: CCn1cc(-c2ccnc3[nH]c(-c4cccc(CN(C)C)c4)cc23)c(-c2ccc(NC(=O)N(C)C)cc2)n1
In short: as §1

[8] = compound: CN1CCC(CNc2ccc3ncc(-c4cccc(OC(F)(F)F)c4)n3n2)CC1
In short: as §1

[9] = compound: CN1CCN(CCOc2cc(OC3CCOCC3)c3c(Nc4c(Cl)ccc5c4OCO5)ncnc3c2)CC1 [saracatinib]
In short: as §1

[10] = compound: CN1CCN(c2nc(C3=C(c4c[nH]c5ccccc45)C(=O)NC3=O)c3ccccc3n2)CC1 [sotrastaurin]
In short: as §1

[11] = compound: CN1CC[C@H](c2c(O)cc(O)c3c(=O)cc(-c4ccccc4Cl)oc23)[C@H](O)C1 [alvocidib]
In short: as §1

[12] = compound: CN1CCc2c(c3ccccc3n2Cc2ccc(C(=O)NO)cc2)C1 [Tubastatin A]
In short: as §1

[13] = compound: CNC(=O)C1=CC=CC=C1NC2=NC(=NC=C2Cl)NC3=C(C=C(C=C3)N4CCOCC4)OC
In short: as §1

[14] = compound: CNC(=O)c1ccc(Nc2ncc(C(F)(F)F)c(NCc3nccnc3N(C)S(C)(=O)=O)n2)cc1 [defactinib]
In short: as §1

[15] = compound: CNc1nc(-c2ccc3c(N)n[nH]c3c2)cc(N2C[C@@H](C(=O)NC3CCCCC3)CC[C@H]2C)n1
In short: as §1

[16] = compound: COC(=O)N[C@@H](C)CNc1nccc(-c2cn(C(C)C)nc2-c2cc(Cl)cc(NS(C)(=O)=O)c2F)n1 [encorafenib]
In short: as §1

[17] = compound: COC(=O)[C@H](CCSC)NC(=O)C1=C(C=C(C=C1)NC[C@H](CS)N)C2=CC=CC=C2
In short: as §1

[18] = compound: COc1cc(Nc2ncc3c(n2)-c2ccc(Cl)cc2C(c2c(F)cccc2OC)=NC3)ccc1C(=O)O [alisertib]
In short: as §1

[19] = compound: COc1cc2nc(-c3cc(F)ccc3O)nc(N[C@@H]3CNC[C@H]3C(C)(C)O)c2cc1OC
In short: as §1

[20] = compound: COc1cc2ncnc(Nc3ccc(F)c(Cl)c3)c2cc1OCCCN1CCOCC1 [gefitinib]
In short: as §1

Measured: log2 fold change

FAT3 isoform 1 (UniProt Q8TDW7)
inactive: [1] 0.003 | [2] -0.005 | [3] 0.024 | [4] 0.131 | [5] -0.065 | [6] 0.119 | [7] 0.122 | [8] -0.162 | [9] 0.122 | [10] 0.028 | [11] 0.022 | [12] -0.053 | [13] -0.059 | [14] -0.084 | [15] 0.012 | [16] -0.053 | [17] -0.02 | [18] 0.025 | [19] -0.021 | [20] -0.01

FH (UniProt P07954)
inactive: [1] 0.009 | [2] -0.005 | [3] 0.027 | [4] -0.019 | [5] 0.002 | [6] 0.006 | [7] 0.02 | [8] -0.029 | [9] 0.008 | [10] 0.013 | [11] 0.036 | [12] 0.03 | [13] -0.011 | [14] 0.026 | [15] -0.016 | [16] -0.033 | [17] 0.048 | [18] 0.008 | [19] -0.005 | [20] -0.008

FHL3 (UniProt Q13643)
inactive: [1] -0.017 | [2] -0.012 | [3] -0.061 | [4] -0.007 | [5] 0.044 | [6] 0 | [7] 0.017 | [8] 0.036 | [9] -0.029 | [10] -0.102 | [11] 0.006 | [12] 0.025 | [13] 0.002 | [14] -0.013 | [15] 0.036 | [16] -0.002 | [17] -0.083 | [18] -0.025 | [19] -0.004 | [20] -0.085

FGFR1OP (UniProt O95684)
inactive: [1] 0.016 | [2] 0.002 | [3] -0.052 | [4] 0.09 | [5] 0.023 | [6] -0.007 | [7] -0.034 | [8] 0.032 | [9] 0.025 | [10] 0.007 | [11] 0.008 | [12] 0.018 | [13] -0.003 | [14] -0.011 | [15] 0.026 | [16] 0.053 | [17] -0.048 | [18] -0.012 | [19] 0.016 | [20] -0.036

FKBP14 (UniProt Q9NWM8)
inactive: [1] -0.015 | [2] 0.005 | [3] -0.073 | [4] 0.006 | [5] 0.002 | [6] -0.048 | [7] -0.026 | [8] 0.038 | [9] -0.001 | [10] -0.078 | [11] 0.031 | [12] 0.042 | [13] -0.006 | [14] 0.037 | [15] 0.019 | [16] 0.035 | [17] -0.054 | [18] -0.01 | [19] -0.041 | [20] 0.062

FBRSL1, A0A3B3IRR3
inactive: [1] 0.132 | [3] 0.055 | [4] 0.069 | [6] 0.085 | [7] 0 | [8] -0.061 | [9] -0.028 | [10] -0.039 | [11] -0.051 | [12] -0.004 | [13] -0.074 | [14] -0.002 | [15] 0.008 | [16] 0.021 | [17] -0.03 | [18] -0.018 | [20] 0.014

FARP2 (UniProt O94887)
inactive: [2] -0.402 | [3] 0.345 | [5] -0.131 | [6] -0.023 | [7] -0.275 | [8] 0.155 | [9] -0.1 | [10] 0 | [11] -0.113 | [12] -0.05 | [13] -0.104 | [15] 0.1 | [18] -0.037 | [19] -0.077 | [20] -0.021

FKRP (UniProt Q9H9S5)
inactive: [1] 0.047 | [2] -0.033 | [4] -0.005 | [5] 0.1 | [6] -0.003 | [7] -0.296 | [8] 0.033 | [9] 0.051 | [10] 0.016 | [11] -0.173 | [12] 0.094 | [13] 0.05 | [14] -0.072 | [15] 0.099 | [16] 0.03 | [17] -0.021 | [19] 0.036

FANCL isoform 2 (UniProt Q9NW38)
inactive: [2] -0.258 | [3] -0.017 | [4] 0.167 | [5] -0.169 | [6] 0.035 | [7] 0.015 | [8] -0.052 | [9] 0.07 | [10] -0.077 | [11] 0.036 | [12] -0.159 | [13] 0.016 | [15] -0.007 | [16] -0.136 | [17] -0.144 | [18] -0.069 | [19] -0.081 | [20] -0.169

FLNA (UniProt H0Y5C6)
inactive: [1] -0.198 | [2] -0.004 | [5] -0.095 | [9] 0.034 | [13] 0.003 | [14] -0.187 | [15] 0.148 | [19] -0.059

Pulled one by one from the entries so far (two):
FLNA (UniProt H0Y5C6)
inactive: [1] -0.198 | [2] -0.004 | [5] -0.095 | [9] 0.034 | [13] 0.003 | [14] -0.187 | [15] 0.148 | [19] -0.059

FBRSL1, A0A3B3IRR3
inactive: [1] 0.132 | [3] 0.055 | [4] 0.069 | [6] 0.085 | [7] 0 | [8] -0.061 | [9] -0.028 | [10] -0.039 | [11] -0.051 | [12] -0.004 | [13] -0.074 | [14] -0.002 | [15] 0.008 | [16] 0.021 | [17] -0.03 | [18] -0.018 | [20] 0.014

Further records

FBXO11 isoform 5 (UniProt Q86XK2)
inactive: [2] 0 | [3] 0.022 | [5] 0.106 | [6] 0.076 | [7] 0.058 | [8] -0.067 | [9] -0.016 | [10] 0.049 | [11] -0.015 | [12] 0.008 | [13] -0.115 | [15] -0.044 | [18] -0.055 | [19] -0.157 | [20] 0.035

FGF13 isoform 3 (UniProt Q92913)
inactive: [2] 0.047 | [3] 0.105 | [4] 0.02 | [5] -0.018 | [6] -0.049 | [7] -0.182 | [8] 0.117 | [9] 0.062 | [10] 0.036 | [11] -0.079 | [12] 0.046 | [13] 0.073 | [15] 0.034 | [16] -0.071 | [17] 0.056 | [18] -0.028 | [19] -0.027 | [20] -0.005

FANCG (UniProt O15287)
inactive: [1] -0.072 | [4] 0.154 | [6] 0.027 | [7] 0.343 | [8] -0.159 | [10] 0.246 | [11] -0.005 | [12] 0.173 | [14] 0.278 | [16] 0.07 | [17] 0.087 | [18] 0.1 | [20] -0.128

FBLN1 (UniProt P23142)
inactive: [1] 0.056 | [3] 0.029 | [6] 0.032 | [7] 0.028 | [8] 0.194 | [10] 0.104 | [11] -0.162 | [12] -0.053 | [14] 0.094 | [18] 0.104 | [20] 0.107

FBXO46 (UniProt Q6PJ61)
inactive: [1] -0.034 | [2] 0.051 | [3] 0.068 | [4] 0.031 | [5] -0.024 | [6] 0.022 | [7] -0.027 | [8] 0.073 | [9] -0.009 | [10] -0.011 | [11] 0.017 | [12] -0.073 | [14] -0.078 | [15] -0.076 | [16] 0.045 | [17] 0.089 | [18] 0.033 | [19] 0.071 | [20] -0.034

FBXL15 (UniProt Q9H469)
inactive: [1] -0.015 | [4] -0.023 | [6] 0.03 | [7] -0.019 | [8] 0.02 | [9] 0.071 | [10] -0.067 | [11] 0.077 | [12] -0.182 | [14] 0.198 | [15] 0.106 | [16] -0.001 | [17] 0.04 | [18] -0.09 | [20] 0.184

FARS2 (UniProt O95363)
inactive: [1] 0.126 | [2] 0.126 | [3] 0.044 | [4] -0.114 | [5] 0.108 | [6] -0.101 | [7] -0.408 | [8] 0.006 | [10] 0.004 | [11] -0.031 | [12] -0.055 | [13] 0.043 | [14] -0.009 | [16] -0.035 | [17] 0.193 | [18] 0.365 | [19] 0.054 | [20] -0.191

FARP1 isoform 2 (UniProt Q9Y4F1)
inactive: [1] 0.041 | [3] -0.193 | [4] -0.05 | [6] -0.068 | [9] 0.037 | [10] -0.098 | [12] -0.108 | [14] -0.069 | [15] 0.045 | [16] -0.117 | [17] 0.234

FBXO45 (UniProt P0C2W1)
inactive: [1] -0.064 | [2] 0.088 | [3] 0.031 | [4] -0.077 | [5] -0.04 | [6] 0.062 | [7] -0.002 | [8] 0.037 | [10] 0.028 | [11] -0.047 | [12] -0.162 | [13] -0.035 | [14] -0.009 | [16] -0.062 | [17] -0.035 | [18] 0.003 | [19] 0.02 | [20] -0.002
